PubChem BioAssay AID1159579 – Peter MacCallum Cancer Centre – 2015

- Screen: 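Follow-up screen seeking modulators of motility in lymphatic endothelial cells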 (follow-up of hits)
- Cells: human dermal lymphatic endothelial cells
- Reagents: single siRNA against human genes, 25 nM
- Detection: 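High content images of wound closure area and cell nuclei counts, each the average of two wells, expressed against mock transfection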
- Scale: migration relative to mock: higher = more migration into the scratch; mean nuclei count: higher = more cells remaining
- Hit rule: 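Called active when the migration ratio is 0.6 or lower (impaired) or 1.3 or higher (accelerated), but inactive whenever the mean nuclei count falls under 3300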
- Calls: active = migration changed (impaired or accelerated); inactive = no migration change, or too few cells
This is a random part of about 2,000 reagents tested. 549 of them (27%) count as active. 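Some migration ratios are negative; siRNAs with too few cells are inactive whatever their migration ratio.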 Reagents against one gene are numbered here. The record does not give: the time to read-out.

gene knocked down,siRNA no.,migration relative to mock,migration and cell number class,mean nuclei count,Outcome
PALM2AKAP2,1,1.05,no change in migration or cell number,5360,inactive
PALM2AKAP2,2,1.1,no change in migration or cell number,5218,inactive
PALM2AKAP2,3,1.06,no change in migration or cell number,5767,inactive
PALM2AKAP2,4,0.73,no change in migration or cell number,5304,inactive
MATK,1,0.68,no change in migration or cell number,5343,inactive
MATK,2,0.84,no change in migration or cell number,5172,inactive
MATK,3,0.46,migration reduced,4443,active
MATK,4,1.04,no change in migration or cell number,6338,inactive
PRKD3,1,0.49,migration reduced,6088,active
PRKD3,2,0.69,no change in migration or cell number,6365,inactive
PRKD3,3,0.68,no change in migration or cell number,5294,inactive
PRKD3,4,0.49,migration reduced,4652,active
RTL8B,1,1.15,no change in migration or cell number,6624,inactive
RTL8B,2,0.82,no change in migration or cell number,5642,inactive
RTL8B,3,1.04,no change in migration or cell number,5372,inactive
RTL8B,4,1.08,no change in migration or cell number,5832,inactive
NXF1,1,0.9,no change in migration or cell number,7570,inactive
NXF1,2,0.52,migration reduced,5506,active
NXF1,3,0.56,migration reduced,6136,active
NXF1,4,0.66,no change in migration or cell number,3834,inactive
LRSAM1,1,1.07,no change in migration or cell number,6114,inactive
LRSAM1,2,0.94,no change in migration or cell number,5716,inactive
LRSAM1,3,1.31,migration increased,5724,active
LRSAM1,4,0.4,migration reduced,5337,active
APPL1,1,0.96,no change in migration or cell number,6511,inactive
APPL1,2,0.67,no change in migration or cell number,5617,inactive
APPL1,3,0.74,no change in migration or cell number,5447,inactive
APPL1,4,0.65,no change in migration or cell number,4664,inactive
TNFRSF8,1,0.44,migration reduced,5570,active
TNFRSF8,2,0.94,no change in migration or cell number,7046,inactive
TNFRSF8,3,0.57,migration reduced,4825,active
TNFRSF8,4,0.39,migration reduced,3709,active
FSIP2,1,0.92,no change in migration or cell number,5698,inactive
FSIP2,2,0.97,no change in migration or cell number,6251,inactive
FSIP2,3,1.09,no change in migration or cell number,5920,inactive
FSIP2,4,0.86,no change in migration or cell number,5794,inactive
BDH2,1,-0.59,migration reduced,3490,active
BDH2,2,0.78,no change in migration or cell number,5523,inactive
BDH2,3,0.66,no change in migration or cell number,5268,inactive
BDH2,4,0.34,migration reduced,3318,active

Targets above whose target name starts with T or t:
gene knocked down,siRNA no.,migration relative to mock,migration and cell number class,mean nuclei count,Outcome
TNFRSF8,1,0.44,migration reduced,5570,active
TNFRSF8,2,0.94,no change in migration or cell number,7046,inactive
TNFRSF8,3,0.57,migration reduced,4825,active
TNFRSF8,4,0.39,migration reduced,3709,active

Further reagents follow.
gene knocked down,siRNA no.,migration relative to mock,migration and cell number class,mean nuclei count,Outcome
PRKG2,1,0.7,no change in migration or cell number,5478,inactive
PRKG2,2,0.12,migration reduced,4715,active
PRKG2,3,0.7,no change in migration or cell number,4728,inactive
PRKG2,4,0.57,migration reduced,8111,active
AMHR2,1,0.65,no change in migration or cell number,4584,inactive
AMHR2,2,0.74,no change in migration or cell number,5081,inactive
AMHR2,3,1.02,no change in migration or cell number,6584,inactive
AMHR2,4,0.76,no change in migration or cell number,6168,inactive
TNFSF8,1,1.04,no change in migration or cell number,6424,inactive
TNFSF8,2,0.21,migration reduced,3312,active
TNFSF8,3,0.57,migration reduced,5171,active
TNFSF8,4,1.06,no change in migration or cell number,6236,inactive
PI4KB,1,0.32,migration reduced,4092,active
PI4KB,2,0.18,migration reduced,4598,active
PI4KB,3,0.35,migration reduced,5954,active
PI4KB,4,0.98,no change in migration or cell number,6630,inactive
SRMS,1,0.44,migration reduced,4674,active
SRMS,2,0.57,migration reduced,4614,active
SRMS,3,0.8,no change in migration or cell number,5941,inactive
SRMS,4,0.52,migration reduced,5412,active
ABCG5,1,0.59,migration reduced,4648,active
ABCG5,2,0.31,too few cells; migration not scored,2790,inactive
ABCG5,3,0.9,no change in migration or cell number,5250,inactive
ABCG5,4,0.74,no change in migration or cell number,5558,inactive
CMTM8,1,0.89,no change in migration or cell number,5658,inactive
CMTM8,2,0.5,migration reduced,4172,active
CMTM8,3,0.85,no change in migration or cell number,5819,inactive
CMTM8,4,0.31,migration reduced,5200,active
